In one assay the target is T1, YbbP (E. coli, UniProt P77504 1-804).
T1 sequence: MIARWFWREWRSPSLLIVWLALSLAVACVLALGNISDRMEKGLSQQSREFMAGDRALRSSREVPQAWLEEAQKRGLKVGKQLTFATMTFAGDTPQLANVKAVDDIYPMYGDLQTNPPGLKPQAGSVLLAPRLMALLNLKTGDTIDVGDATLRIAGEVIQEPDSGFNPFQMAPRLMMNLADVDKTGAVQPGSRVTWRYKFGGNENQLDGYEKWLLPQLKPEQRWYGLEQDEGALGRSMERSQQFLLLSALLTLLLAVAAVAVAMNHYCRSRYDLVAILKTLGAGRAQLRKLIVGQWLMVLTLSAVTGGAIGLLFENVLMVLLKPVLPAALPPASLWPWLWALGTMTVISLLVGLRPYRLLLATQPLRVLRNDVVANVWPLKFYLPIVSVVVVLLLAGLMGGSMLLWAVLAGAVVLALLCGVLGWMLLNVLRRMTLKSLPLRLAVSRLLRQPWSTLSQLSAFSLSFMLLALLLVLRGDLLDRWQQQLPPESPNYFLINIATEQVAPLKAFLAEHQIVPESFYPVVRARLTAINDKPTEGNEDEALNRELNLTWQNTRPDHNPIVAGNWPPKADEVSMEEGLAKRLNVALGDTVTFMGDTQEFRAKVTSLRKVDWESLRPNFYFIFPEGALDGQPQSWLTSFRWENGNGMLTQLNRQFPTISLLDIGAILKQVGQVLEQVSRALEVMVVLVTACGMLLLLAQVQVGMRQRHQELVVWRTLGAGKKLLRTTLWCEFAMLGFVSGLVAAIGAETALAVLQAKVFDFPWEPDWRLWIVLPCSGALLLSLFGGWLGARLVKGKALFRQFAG
The experiment in a line: cryo-EM structure.

The target of the next assay is T2, YbbA (E. coli) (UniProt P0A9T8).
T2 sequence: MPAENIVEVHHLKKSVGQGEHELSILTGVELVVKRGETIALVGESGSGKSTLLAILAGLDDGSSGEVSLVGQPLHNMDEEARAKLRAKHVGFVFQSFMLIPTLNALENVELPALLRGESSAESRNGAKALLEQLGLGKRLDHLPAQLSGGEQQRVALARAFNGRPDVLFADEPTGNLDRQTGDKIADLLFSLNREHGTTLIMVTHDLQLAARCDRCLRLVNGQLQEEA
The experiment in a line: pull-down.

Assay [1] addresses T3, YbbAP ABC transporter (E. coli) (UniProt P0A9T8+P77504).
T3 sequence 1: T2 sequence
T3 sequence 2: T1 sequence
The experiment in a line: pull-down.

In assay [2] the target is T3, YbbAP ABC transporter (E. coli). The experiment in a line: cryo-EM structure.

Numbering of substitutions follows the chain as printed. Like-named read-outs stand apart in the source and are kept apart here. No constants are given. Whether binding was seen depends on the method and setting. For some assays here: In cells and extracts the contact can be indirect. Some results given as binding are weak or reduced against the parent protein; the word gives no strength.

B1: YbbA (natural protein, E. coli)
chain: T2 sequence
Regarding B1, the binding result in the assay with YbbP, with YbbP (record 2) and in the assay with YbbP (record 3) was “binds” in each case.

B2: YbbP (protein, UniProt P77504 1-804)
chain: T1 sequence
With B2, the binding result in the assay with YbbA (E. coli) is on record as “binds”.

B3: TesA (enzyme, UniProt P0ADA1 27-208)
chain: ADTLLILGDSLSAGYRMSASAAWPALLNDKWQSKTSVVNASISGDTSQQGLARLPALLKQHQPRWVLVELGGNDGLRGFQPQQTEQTLRQILQDVKAANAEPLLMQIRLPANYGRRYNEAFSAIYPKLAKEFDVPLLPFFMEEVYLKPQWMQDDGIHPNRDAQPFIADWMAKQLQPLVNHDS
Regarding B3, the binding result in assay [1] was “binds”.

B4: TesA Ser36Ala (enzyme, E. coli, UniProt P0ADA1 27-208, looked up)
chain: B3 chain with S10A
As for B4, the binding result (with YbbP; in assay [2]; in assay [1]) was “binds” each time.

The values are drawn from paper doi:10.1101/2025.05.16.654284 (bioRxiv, 2025).
